Some of the results follow. Repeats in this data set agree poorly, so a single value says little.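 Fusion between ACE2-bearing and full-length-spike-bearing U2OS cells was measured by imaging as the percentage of nuclei with both cell types' fluorescent markers. An inhibitory hit is a non-toxic compound whose fusion z-score is below -3, more than three standard deviations beneath the plate's DMSO wells.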
The molecules below were run on U2OS ACE2 x SARS-CoV-2 spike co-culture (assay: cell-cell fusion (fraction fused) z-score vs plate DMSO control; higher = more fusion). Conditions: 30 µM; 5 h; toxicity class: non-toxic, passed QC.

Structure (SMILES) | cell-cell fusion (z-score)
Cl.Cl.c1ccc(CCCN2CCN(CCOC(c3ccccc3)c3ccccc3)CC2)cc1 | inactive: -0.441
CC(=O)CCCCn1c(=O)c2c(ncn2C)n(C)c1=O [Pentoxifylline] | inactive: 3.1
CC(O)C(O)[C@H]1CNc2nc(N)[nH]c(=O)c2N1.Cl.Cl (stereo partly drawn) [(6R)-5,6,7,8-Tetrahydro-L-biopterin hydrochloride] | inactive: 1.2
Nc1ncnc2c1ncn2[C@@H]1O[C@@H]2COP(=O)(O)O[C@H]2[C@H]1O [Adenosine 3',5'-cyclic monophosphate] | inactive: 1.63
C[C@@H]1O[C@@H](OC[C@H]2OC(Oc3c(-c4ccc(O)c(O)c4)oc4cc(O)cc(O)c4c3=O)[C@H](O)[C@@H](O)[C@@H]2O)[C@H](O)[C@H](O)[C@H]1O (stereo partly drawn) | inactive: 2.86
CCCNC(=O)Nc1ccc(Oc2ncnc3cc(OC)c(OC)cc23)cc1Cl | inactive: 0.756
CC(=O)OCC(=O)[C@@]12OC3(CCCC3)O[C@@H]1C[C@H]1[C@@H]3CCC4=CC(=O)C=C[C@]4(C)[C@@]3(F)[C@@H](O)C[C@@]12C [Amcinonide] | inactive: 1.2
Cl.CNCC\C=C1\c2ccccc2CCc2ccccc12 [Nortriptyline hydrochloride] | inactive: -1.23
FC(F)c1nc2ccccc2n1-c1nc(N2CCOCC2)nc(N2CCOCC2)n1 | inactive: 0.758
CCC(CCC(C)[C@H]1CCC2C3CC=C4C[C@@H](O)CC[C@]4(C)C3CC[C@@]21C)C(C)C (stereo partly drawn) [beta-SITOSTEROL] | inactive: 1.86
NS(=O)(=O)c1cc2c(cc1Cl)N=C(CSCc1ccccc1)NS2(=O)=O | inactive: 1.4
CCN(C)C(=O)Oc1cccc([C@H](C)N(C)C)c1 [Rivastigmine] | inactive: 1.01
C[C@@H]1CC2C3CCC4=CC(=O)C=C[C@]4(C)[C@@]3(F)[C@@H](O)C[C@]2(C)[C@H]1C(=O)CO (stereo partly drawn) | inactive: 3.63
Cc1nccc2c1[nH]c1ccccc12 [Harmane] | inactive: 0.00565
CN(C)CCCN1c2ccccc2CCc2ccc(Cl)cc21.Cl [Clomipramine hydrochloride] | inactive: 2.15
NC1(C(=O)O)CCc2cc(C(=O)O)ccc21 (stereo not drawn) | inactive: 1.73
CC(=O)Nc1ccc(O)cc1 [Acetaminophen] | inactive: 2.85
COc1cc2c(Oc3ccc4[nH]c(C)cc4c3F)ncnc2cc1OCCCN1CCCC1 [Cediranib (AZD2171)] | inactive: 1.61
CC(C)=CCCC1(C)C=Cc2c(O)c3c(c(CC=C(C)C)c2O1)OC12C(=CC4CC1C(C)(C)OC2(C/C=C(/C)C(=O)O)C4O)C3=O (stereo not drawn) | inactive: 2.83
N=C(N)NOCC[C@H](N)C(=O)O | inactive: 2.39
Cc1nnc(C(C)C)n1C1CC2CCC(C1)N2CC[C@H](NC(=O)C1CCC(F)(F)CC1)c1ccccc1 (stereo partly drawn) [Maraviroc] | inactive: 3.18
C=CC(=O)Nc1cccc(Nc2nc(Nc3ccc(N4CCN(C(C)=O)CC4)cc3OC)ncc2C(F)(F)F)c1 | inactive: -1.17
COC(=O)c1c(C)cc(OC(=O)c2c(C)cc(O)c(CO)c2O)c(C)c1O | inactive: 1.43
CC1=C(C/C=C(\C)CCC[C@H](C)CCC[C@H](C)CCCC(C)C)C(=O)c2ccccc2C1=O [Vitamin K1] | inactive: 4
Cn1cc(C(=O)OCC2CCN(CCNS(C)(=O)=O)CC2)c2ccccc21 | inactive: 2.83

As entered above.
COC(=O)c1c(C)cc(OC(=O)c2c(C)cc(O)c(CO)c2O)c(C)c1O | cell-cell fusion (z-score): inactive: 1.43
NS(=O)(=O)c1cc2c(cc1Cl)N=C(CSCc1ccccc1)NS2(=O)=O | cell-cell fusion (z-score): inactive: 1.4
CCC(CCC(C)[C@H]1CCC2C3CC=C4C[C@@H](O)CC[C@]4(C)C3CC[C@@]21C)C(C)C (stereo partly drawn) [beta-SITOSTEROL] | cell-cell fusion (z-score): inactive: 1.86

(continued)

Structure (SMILES) | cell-cell fusion (z-score)
CN1C(CC(=O)c2ccccc2)CCCC1CC(O)c1ccccc1.Cl (stereo not drawn) | inactive: 2.84
Cc1ccccc1CN1C2=NCCN2C(=O)C2=C1CCN(Cc1ccccc1)C2 | inactive: 2.2
CN(C)CCCN1c2ccccc2Sc2ccccc21.Cl [Promazine hydrochloride] | inactive: 1.97
COc1ccc(CCNc2nc(N3CCc4cc(OC)c(OC)cc4C3)c3cc(OC)c(OC)cc3n2)cc1OC.Cl | active: -4.41
Cl.N=C1CCCN1Cc1[nH]c(=O)[nH]c(=O)c1Cl [Tipiracil hydrochloride] | inactive: 1.72
CN(C)CCc1c[nH]c2ccc(C[C@H]3COC(=O)N3)cc12 [Zolmitriptan] | inactive: 2.34
O=C(O)CCCC[C@@H]1SC[C@@H]2NC(=O)N[C@@H]21 [D-Biotin] | inactive: 1.22
Cl.NCC(O)c1ccc(O)cc1 (stereo not drawn) | inactive: 1.84
N#CNC(=N)N | inactive: 2.46
CCCc1cc(=O)[nH]c(=S)[nH]1 [Propylthiouracil] | inactive: 2.24
CNCC(=O)c1ccc(O)c(O)c1.Cl | active: -3.91
CCN(CC)CCNC(C(=O)OCCC(C)C)c1ccccc1.Cl.Cl (stereo not drawn) | inactive: 2.42
CC(=O)N[C@H]1[C@H]([C@H](O)[C@H](O)CO)OC(C(=O)O)=C[C@@H]1NC(=N)N [Zanamivir] | inactive: 2.04
CC(CCC(=O)O)[C@H]1CCC2C3C(=O)C[C@@H]4CC(=O)CC[C@]4(C)C3CC(=O)[C@@]21C (stereo partly drawn) | inactive: 0.732
Br.CN1CCC[C@@H]1Cc1c[nH]c2cc(CCS(=O)(=O)c3ccccc3)ccc12 | inactive: 2.48
NCC(=O)NCC(=O)O | inactive: 1.74
CC(C)c1nc(CN(C)C(=O)N[C@H](C(=O)N[C@@H](Cc2ccccc2)C[C@H](O)[C@H](Cc2ccccc2)NC(=O)OCc2cncs2)C(C)C)cs1 | inactive: 2.77
C[C@H](N)[C@H](O)c1ccccc1 | inactive: 1.19
COc1c(OC)c2occc2c2oc(=O)ccc12 | inactive: 1.11
COC(=O)CCC(C)[C@H]1CCC2C3C(C[C@H](O)[C@@]21C)[C@@]1(C)CC[C@@H](O)C[C@H]1C[C@H]3O (stereo partly drawn) | inactive: -1.06
CC(=O)Oc1cccc2c1C(=O)c1c(OC(C)=O)cc(C(=O)O)cc1C2=O | inactive: 1.66
COc1cc2c(cc1OC)C(=O)C(CC1CCN(Cc3ccccc3)CC1)C2 (stereo not drawn) [Donepezil] | inactive: 2.42
O=C(O)c1cc2cc(F)ccc2[nH]1 [5-Fluoroindole-2-carboxylic acid] | inactive: 1.66
COc1ccc(-c2cc(=O)c3c(OC)c(OC)c(OC)c(OC)c3o2)cc1 | inactive: 1.92
Cc1cc(N)c2ccccc2[n+]1CCCCCCCCCC[n+]1c(C)cc(N)c2ccccc21.[Cl-].[Cl-] | inactive: 3.23

Structure (SMILES) | cell-cell fusion (z-score)
Nc1ccn(C2O[C@H](CO)[C@@H](O)[C@@H]2O)c(=O)n1 (stereo partly drawn) | inactive: 0.0918
CN(C)[C@@H]1C(O)=C(C(N)=O)C(=O)[C@@]2(O)C(O)=C3C(=O)c4c(O)cccc4[C@@](C)(O)[C@H]3[C@H](O)[C@@H]12.Cl | inactive: 1.95
CC(C)OC(=O)C(C)(C)Oc1ccc(C(=O)c2ccc(Cl)cc2)cc1 [Fenofibrate] | inactive: 4.18
CC(C)OC(=O)C(C)(C)Oc1ccc(C(=O)c2ccc(Cl)cc2)cc1 | inactive: 0.746
O=C(NC(=O)c1c(F)cccc1F)Nc1ccc(Cl)cc1 | inactive: 3.08
COc1cccc2c1C(=O)c1c(O)c3c(c(O)c1C2=O)C[C@@](O)(C(=O)CO)C[C@@H]3OC1C[C@H](N)[C@H](O)[C@H](C)O1 (stereo partly drawn) | inactive: 3.4
Br.COc1ccc2c3c1O[C@H]1C[C@@H](O)C=C[C@@]31CCN(C)C2 [Galanthamine HBr] | inactive: 0.216
C=C1C2CC[C@@]3(C)[C@H](c4ccoc4)OC(=O)C[C@]13O[C@H]1CC(O)C(C)(C)C(CC(=O)OC)[C@@]21C (stereo partly drawn) [3alpha-HYDROXY-3-DEOXYANGOLENSIC ACID METHYL ESTER] | inactive: 2.27
O=C(O)CCCCCCCC(O)C(O)CCCCCCO (stereo not drawn) | inactive: 2.91
CC(C)(CO)[C@@H](O)C(=O)NCCC(=O)[O-].[Na+] [PANTOTHENIC ACID(d) Na salt] | inactive: 1.57
CCCCC(=O)O[C@]1(C(=O)CO)CC[C@H]2[C@@H]3CCC4=CC(=O)CC[C@]4(C)[C@H]3[C@@H](O)C[C@@]21C | inactive: 0.17
CC(CC(C(N)=O)(c1ccccc1)c1ccccc1)N(C)C.O=S(=O)(O)O (stereo not drawn) | inactive: 2.02
O=c1c(-c2cc(O)c(O)c(O)c2)coc2cc(O)c(O)c(O)c12 | inactive: 1.65
O=C(Nc1ccccc1)c1ccccc1O | inactive: -1.27
COc1ccc2oc(-c3ccccc3)c(OC)c(=O)c2c1 | inactive: -1.05
COc1ccc(S(=O)(=O)Nc2nc(-c3cccc([N+](=O)[O-])c3)cs2)cc1OC | inactive: 2.39
COc1cc(Nc2ncc(F)c(Nc3ccc4c(n3)N(COP(=O)([O-])[O-])C(=O)C(C)(C)O4)n2)cc(OC)c1OC.[Na+].[Na+] | inactive: 1.88
CC(=O)c1cc2ccccc2oc1=O | inactive: 3.68
Cl.N=C(N)c1ccccc1 [Benzamidine hydrochloride] | inactive: 0.223
Cc1cccc(-c2n[nH]cc2-c2ccc3ncccc3n2)n1 | inactive: 2.28
O=S(=O)([O-])CCSSCCS(=O)(=O)[O-].[Na+].[Na+] [Dimesna] | inactive: 1.21
CC(Oc1c(Cl)cccc1Cl)C1=NCCN1 (stereo not drawn) [Lofexidine] | inactive: 2.69
CC(=O)NC1CCSC1=O (stereo not drawn) | inactive: 3.65

Source: the supplement of paper PMC8104966
